Results published in paper PMC10558514.
No constants are given. Whether binding was seen depends on the method and setting. In cells and extracts the contact can be indirect. Some entries that bind do so weakly or less than the wild type. Where a sequence is shown, tags or fusion partners need not be part of it.

Columns and labels:
Assay in all cases: co-IP; IP with α-Myc antibody from extracts of HEK293T cells transfected with Myc-YTHDF2 (WT or variant), western blot; DMSO or MG132 12 h (Fig. 3b), two days after transfection (Fig. 4a)
[1] = biological target: T1, Myc-YTHDF2^R-Δ169-200 (human) (UniProt Q9Y5A9)
T1 sequence: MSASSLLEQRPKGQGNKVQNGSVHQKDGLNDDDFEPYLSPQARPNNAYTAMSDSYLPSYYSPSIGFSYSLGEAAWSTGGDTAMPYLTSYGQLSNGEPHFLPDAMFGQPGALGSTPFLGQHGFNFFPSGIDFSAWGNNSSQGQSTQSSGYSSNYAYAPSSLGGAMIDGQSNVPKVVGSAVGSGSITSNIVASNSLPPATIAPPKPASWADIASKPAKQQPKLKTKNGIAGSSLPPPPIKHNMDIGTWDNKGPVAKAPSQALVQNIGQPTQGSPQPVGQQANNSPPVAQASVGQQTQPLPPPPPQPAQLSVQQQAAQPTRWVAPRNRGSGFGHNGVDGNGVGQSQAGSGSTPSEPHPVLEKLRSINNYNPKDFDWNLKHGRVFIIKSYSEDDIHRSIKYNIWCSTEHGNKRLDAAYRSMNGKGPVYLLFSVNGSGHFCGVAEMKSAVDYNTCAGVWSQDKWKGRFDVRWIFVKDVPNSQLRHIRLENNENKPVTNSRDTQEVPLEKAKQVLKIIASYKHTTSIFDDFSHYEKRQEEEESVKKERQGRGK

[2] = biological target: T2, Myc-YTHDF2-wild type (WT) (human) (UniProt Q9Y5A9)
T2 sequence: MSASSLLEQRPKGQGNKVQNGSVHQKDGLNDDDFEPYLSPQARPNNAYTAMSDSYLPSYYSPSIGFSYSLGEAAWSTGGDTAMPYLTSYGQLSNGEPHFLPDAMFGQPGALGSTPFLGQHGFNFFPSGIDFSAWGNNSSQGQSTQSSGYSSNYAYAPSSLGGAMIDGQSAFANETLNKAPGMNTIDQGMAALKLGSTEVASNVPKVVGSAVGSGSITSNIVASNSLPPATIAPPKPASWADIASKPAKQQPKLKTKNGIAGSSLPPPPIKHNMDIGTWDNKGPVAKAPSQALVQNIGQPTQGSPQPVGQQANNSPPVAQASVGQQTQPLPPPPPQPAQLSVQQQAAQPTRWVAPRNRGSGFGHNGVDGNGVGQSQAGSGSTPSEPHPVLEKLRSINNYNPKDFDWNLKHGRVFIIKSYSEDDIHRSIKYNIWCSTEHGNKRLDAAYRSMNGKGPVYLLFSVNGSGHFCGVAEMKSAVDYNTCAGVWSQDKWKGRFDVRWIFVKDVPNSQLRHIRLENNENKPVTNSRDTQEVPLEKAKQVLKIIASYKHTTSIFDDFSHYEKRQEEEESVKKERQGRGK

[3] = biological target: T3, Myc-YTHDF2^R-R527A (human) (UniProt Q9Y5A9)
T3 sequence: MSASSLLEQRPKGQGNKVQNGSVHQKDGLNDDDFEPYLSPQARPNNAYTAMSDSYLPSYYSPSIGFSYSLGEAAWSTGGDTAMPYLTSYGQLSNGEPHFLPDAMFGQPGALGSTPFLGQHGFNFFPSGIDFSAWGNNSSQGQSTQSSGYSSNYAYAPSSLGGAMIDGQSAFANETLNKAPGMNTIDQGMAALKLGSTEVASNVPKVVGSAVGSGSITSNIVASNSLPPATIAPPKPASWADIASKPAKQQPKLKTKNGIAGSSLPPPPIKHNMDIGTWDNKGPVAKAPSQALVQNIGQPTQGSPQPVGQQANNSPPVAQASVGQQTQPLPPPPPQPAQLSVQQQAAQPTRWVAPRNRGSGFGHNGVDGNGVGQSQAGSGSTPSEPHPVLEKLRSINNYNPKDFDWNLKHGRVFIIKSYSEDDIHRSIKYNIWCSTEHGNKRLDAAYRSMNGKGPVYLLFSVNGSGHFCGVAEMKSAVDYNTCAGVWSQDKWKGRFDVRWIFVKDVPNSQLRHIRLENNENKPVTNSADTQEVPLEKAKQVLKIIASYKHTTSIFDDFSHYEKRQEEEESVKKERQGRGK

Measured: binding

B1: upstream frameshift 1 (UPF1), endogenous (protein, UniProt Q92900 1-1129)
chain: MSVEAYGPSSQTLTFLDTEEAELLGADTQGSEFEFTDFTLPSQTQTPPGGPGGPGGGGAGGPGGAGAGAAAGQLDAQVGPEGILQNGAVDDSVAKTSQLLAELNFEEDEEDTYYTKDLPIHACSYCGIHDPACVVYCNTSKKWFCNGRGNTSGSHIVNHLVRAKCKEVTLHKDGPLGETVLECYNCGCRNVFLLGFIPAKADSVVVLLCRQPCASQSSLKDINWDSSQWQPLIQDRCFLSWLVKIPSEQEQLRARQITAQQINKLEELWKENPSATLEDLEKPGVDEEPQHVLLRYEDAYQYQNIFGPLVKLEADYDKKLKESQTQDNITVRWDLGLNKKRIAYFTLPKTDSGNEDLVIIWLRDMRLMQGDEICLRYKGDLAPLWKGIGHVIKVPDNYGDEIAIELRSSVGAPVEVTHNFQVDFVWKSTSFDRMQSALKTFAVDETSVSGYIYHKLLGHEVEDVIIKCQLPKRFTAQGLPDLNHSQVYAVKTVLQRPLSLIQGPPGTGKTVTSATIVYHLARQGNGPVLVCAPSNIAVDQLTEKIHQTGLKVVRLCAKSREAIDSPVSFLALHNQIRNMDSMPELQKLQQLKDETGELSSADEKRYRALKRTAERELLMNADVICCTCVGAGDPRLAKMQFRSILIDESTQATEPECMVPVVLGAKQLILVGDHCQLGPVVMCKKAAKAGLSQSLFERLVVLGIRPIRLQVQYRMHPALSAFPSNIFYEGSLQNGVTAADRVKKGFDFQWPQPDKPMFFYVTQGQEEIASSGTSYLNRTEAANVEKITTKLLKAGAKPDQIGIITPYEGQRSYLVQYMQFSGSLHTKLYQEVEIASVDAFQGREKDFIILSCVRANEHQGIGFLNDPRRLNVALTRARYGVIIVGNPKALSKQPLWNHLLNYYKEQKVLVEGPLNNLRESLMQFSKPRKLVNTINPGARFMTTAMYDAREAIIPGSVYDRSSQGRPSSMYFQTHDQIGMISAGPSHVAAMNIPIPFNLVMPPMPPPGYFGQANGPAAGRGTPKGKTGRGGRQKNRFGLPGPSQTNLPNSQASQDVASQPFSQGALTQGYISMSQPSQMSQPGLSQPELSQDSYLGDEFKSQIDVALSQDSTYQGERAYQHGGVTGLSQY
binds: all assays above
